Taken from: PubChem BioAssay AID504764 (Drosophila RNAi Screening Center, 2011)
The deposit covers about 22,000 reagents; below is a random part of those that have a named target and a result. Over the whole deposit, 403 (1.9%) are marked active. 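Unnormalised raw counts per well; ratio z-scores behind the hit calls and whether each hit raises or lowers signal are not deposited.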 No sequences are given here. Not stated in the record: the amount of reagent.

- Test: 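Genes whose knock-down alters Notch-dependent transcription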 (primary screen)
- Cells: Drosophila Kc167 cells
- Reagents: long dsRNA against Drosophila genes
- Duration: about 5 days (4 days dsRNA, then 24 h after transfection)
- Treatment: transfection of constitutively active membrane-tethered Notch lacking the extracellular domain, read 24 h later
- Measured: 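Firefly luciferase from an E(spl)m3 reporter with active Notch, plus control-promoter and uninduced reporter wells for normalisation; unnormalised counts, duplicate wells a and b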
- Direction: induced reporter light, run 1, well a and induced reporter light, run 1, well b: higher = more light from the Notch target reporter with active Notch; control promoter light, run 1, well a and control promoter light, run 1, well b: higher = more light from the viral control promoter (cell number, transfection, viability); uninduced reporter light, run 1, well a: higher = more light from the Notch target reporter without active Notch
- Call rule: 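Wells with low control signal or poorly matching duplicates excluded; duplicates averaged; per source plate, z beyond ±2 for induced/control log2 ratio or beyond ±1.8 for induced/uninduced marks a hit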
- Calls: active = modifier hit (raised or lowered Notch signal); inactive = not a hit

gene knocked down | amplicon | induced reporter light, run 1, well a | induced reporter light, run 1, well b | control promoter light, run 1, well a | control promoter light, run 1, well b | uninduced reporter light, run 1, well a | Call
Syb | DRSC07559 | 1.23e5 | 1.02e5 | 95230 | 97790 | 7850 | inactive
CG15475 | DRSC02486 | 74200 | 44475 | 35610 | 29325 | 2250 | inactive
PMCA | DRSC17113 | 69450 | 83540 | 1.00e5 | 98455 | 5920 | inactive
PMCA | DRSC17114 | 60085 | 52040 | 58490 | 54935 | 4982 | active
PMCA | DRSC17154 | 29610 | 31595 | 44235 | 43850 | 2720 | inactive
Tsp42Eo | DRSC06184 | 1.49e5 | 1.40e5 | 2.24e5 | 1.91e5 | 11155 | inactive
pic | DRSC16639 | 66740 | 64335 | 43210 | 42810 | 6742 | inactive
Lcp65Af | DRSC11213 | 1.75e5 | 1.80e5 | 2.14e5 | 1.80e5 | 8055 | inactive
run | DRSC20584 | 1.66e5 | 1.57e5 | 1.43e5 | 91760 | 11120 | inactive
CCT8 | DRSC07130 | 26755 | 28340 | 28085 | 20655 | 2820 | inactive
dachs | DRSC02072 | 2.09e5 | 2.26e5 | 2.65e5 | 2.93e5 | 17635 | inactive
dachs | DRSC02191 | 1.73e5 | 2.26e5 | 1.04e5 | 1.44e5 | 26740 | inactive
CG1607 | DRSC15130 | 1.42e5 | 1.80e5 | 2.28e5 | 2.38e5 | 13620 | inactive
CG13390 | DRSC02261 | 1.57e5 | 1.88e5 | 1.03e5 | 1.30e5 | 23915 | inactive
CG15185 | DRSC12565 | 74075 | 91615 | 83975 | 64640 | 7620 | inactive
ND-MLRQ | DRSC11913 | 2.25e5 | 2.10e5 | 2.67e5 | 2.60e5 | 16520 | inactive
Arc1 | DRSC06159 | 1.14e5 | 1.23e5 | 1.44e5 | 1.44e5 | 17682 | active
CG10340 | DRSC14232 | 2.10e5 | 2.26e5 | 2.79e5 | 3.36e5 | 17200 | inactive
SerRS | DRSC00496 | 45340 | 57455 | 44295 | 56060 | 4990 | inactive
mip120 | DRSC06960 | 56090 | 64120 | 97495 | 85955 | 5965 | inactive
mamo | DRSC19370 | 64980 | 65210 | 74655 | 73020 | 9330 | inactive
ort | DRSC16240 | 1.80e5 | 1.98e5 | 2.25e5 | 2.32e5 | 15525 | inactive
ClC-a | DRSC14947 | 99720 | 93365 | 86245 | 67415 | 6190 | inactive
ClC-a | DRSC14948 | 88820 | 84680 | 76080 | 79020 | 5720 | inactive
ClC-a | DRSC16142 | 1.56e5 | 1.28e5 | 93010 | 78880 | 10565 | inactive
CG8160 | DRSC07086 | 1.21e5 | 1.26e5 | 1.28e5 | 1.52e5 | 8215 | inactive
CG12617 | DRSC02176 | 41485 | 32960 | 40940 | 49480 | 2130 | inactive
Ppat-Dpck | DRSC09744 | 2.79e5 | 2.52e5 | 4.67e5 | 3.92e5 | 15460 | inactive
CG10970 | DRSC17772 | 1.79e5 | 1.66e5 | 2.37e5 | 1.88e5 | 12380 | inactive
TrpRS-m | DRSC10848 | 99440 | 1.29e5 | 77530 | 91390 | 9100 | inactive
CG18213 | DRSC15316 | 1.88e5 | 2.44e5 | 2.10e5 | 2.15e5 | 15215 | inactive
CG34376 | DRSC14695 | 1.36e5 | 1.26e5 | 1.34e5 | 1.32e5 | 9565 | inactive
CG34376 | DRSC14696 | 1.56e5 | 1.35e5 | 2.04e5 | 1.82e5 | 12950 | inactive
CG34376 | DRSC14701 | 1.75e5 | 1.80e5 | 1.87e5 | 1.60e5 | 13510 | inactive

Reagents listed so far called active:
gene knocked down | amplicon | induced reporter light, run 1, well a | induced reporter light, run 1, well b | control promoter light, run 1, well a | control promoter light, run 1, well b | uninduced reporter light, run 1, well a | Call
PMCA | DRSC17114 | 60085 | 52040 | 58490 | 54935 | 4982 | active
Arc1 | DRSC06159 | 1.14e5 | 1.23e5 | 1.44e5 | 1.44e5 | 17682 | active
